Values joined by “and” are separate entries in the source; they are usually repeats but may differ in a detail not shown here. Equal entries are not always repeated. The source gives many values for each of these; only a part stands here.
System: GEMS receptors with CBPA11 (BclXL–LD3 and BclXLhigh variants), STAT3-driven SEAP in HEK293T cells
Assay: GEMS SEAP reporter assay, CBPA11 (BclXLhigh, LD3-v and BclXL-v variants) with A-1155463
Type: cell-based
Set-up: key to SEAP, replicate values / Raw data (SEAP) / Raw data of Figure 5b: SEAP activity in U/L in culture supernatant
Details: for Normalized data (SEAP) / Raw data (SEAP): SuppFigure 9a; for SEAP, replicate values: Supplementary Figure 9e
Description: To rationally design a CBP responding to a chemical input, we used BclXL as the druglow receptor, LD3 as the designed binder and a designed BclXL variant as the drughigh receptor (referred to as BclXLhigh) to construct a CBP responsive to BclXL inhibitors (Fig. 4a). To design BclXLhigh, we used a multistate design computational protocol described elsewhere[26] […] Thus, BclXLhigh-v(1–3) were chosen as the functional drughigh receptors, resulting in three A-1155463-controlled CBPs (referred to as CBPA11-v(1–3)) (Fig. 4c–e).
HEK293T cells were seeded in a 96-well plate 24 h before transfection. The transfection mix in each well consisted of 3 ng of constitutive human CMV promoter driven mammalian STAT3 expression vector (PhCMV-STAT3-pA), 30 ng of STAT3-induced reporter expression (OStat3-PhCMVmin-SEAP-pA) and 50 ng of expression vectors for each GEMS receptor chain (PSV40-IgK-(drughigh receptor)-EpoRm-IL-6RBm-pA and PSV40-IgK-(druglow receptor-GGGGSX3-LD3)-EpoRm-IL-6RBm-pA). For the specific drughigh receptor and druglow receptor used in the different cellular assays, they are indicated as wild type or with mutations. Then, plasmid DNA was mixed with 50 μl opti-MEM (Thermo Fisher) and 600 ng of polyethyleneimine (Polysciences, catalog no. 24765-1). For drug treatment experiments, drugs were added 12 h post-transfection and incubated with cells for 24 h before the SEAP reporter detection assay.
SEAP activity (U l^−1) in cell culture supernatants was quantified by kinetic measurements at 405 nm (1 minute per measurement for 30 cycles) of absorbance increase due to phosphatase-mediated hydrolysis of para-nitrophenyl phosphate (pNPP).
Binding affinities of SPR drug competition assays were calculated using three-parameter nonlinear regression in GraphPad Prism (v.8.3.0). Representative data of cell assays are presented as individual values and mean values (bars). n = 3 refers to biological replicates. All IC50 or EC50 values of cell assays reported were calculated using four-parameter nonlinear regression ± s.d. Bandpass features of cutoff concentrations and Bandwidth90% were estimated based on the curve fitted using bell-shaped curve nonlinear regression in GraphPad Prism (v.8.3.0). […]
Supplementary Figure 4: Design, screening and validation of BclXLhigh variants. a) Screening of BclXLhigh variants in the GEMS platform. […]
Dissociation constant measurement of BclXLhigh-v(1-3) and LD3. Equilibrium curves are fitted using […]
BclXLhigh-v1 (purple), BclXLhigh-v2 (blue), […]
a) Bcl2high-based bandpass filter designs were developed and to respond to different concentrations of […]
corresponding inhibitor. c) Screening of Bcl2high-based bandpass filter variants in the GEMS platform.
The designed binder LD3 was fused to the druglow-receptor (PSV40-IgK-Bcl2-LD3-EpoRm-IL-6RBm-pA) in one EpoR chain and Bcl2high variants with the insensitive Bcl2 (iBcl2) as control in the other EpoR chain (PSV40-IgK-Bcl2high-EpoRm-IL-6RBm-pA). HEK293T cells were transfected with indicated […]
the mean of six biological replicates ± s.d., overlaid with a scatter dot plot of the original data points.
(1 picture or pasted object on this page, not shown here)
Supplementary Figure 6: Binding affinities and drug resistances of Bcl2high-v(2,4,5) assessed by […]
a) Measurement of dissociation constants for Bcl2high-v(2,4,5) and LD3 interactions. Equilibrium curves […]
Bcl2high-v(2,4,5) measured by SPR. 5 μM of Bcl2 or indicated variants were mixed with 10 μM of […]
Bcl2high-v2 (red), Bcl2high-v4
Supplementary Figure 7: Screening of LD3 variants in CBPA11-v(1-3) and raw data of CBPA11-v(1,3) with LD3-v3 variant. a-c) Screening of LD3 and LD3-v(1-3) variants in complex with BclXL for more sensitive CBPA11-v1 (a), CBPA11-v2 (b), CBPA11-v3 (c) in the GEMS platform. The LD3 variants replaced the role of LD3 (PSV40-IgK-BclXL-LD3-v(1-3)-EpoRm-IL-6RBm-pA) in one EpoR chain and BclXLhigh-v(1-3) in the other EpoR chain (PSV40-IgK-BclXLhigh-V(1-3)-EpoRm-IL-6RBm-pA). HEK293T cells were transfected with […]

For `CN(C)CC#Cc1ccc(OCCCc2sc(N3CCc4cccc(C(=O)Nc5nc6ccccc6s5)c4C3)nc2C(=O)O)c(F)c1` [A-1155463], which “Normalized data Figure 5e” value (CBPA11-v3, A-1155463 10000 nM) is on record?
Its value is 13.1316 and 14.3664 and 15.957.

What about the “Raw data of Figure 5b” value (CBPA11-v3-LD3v3, A-1155463 100 nM) of the same molecule?
The value was 93.696 and 106.99.

What about the “Normalized data (SEAP)” value (BclXL-v1, A-1155463 10 nM) of the same molecule?
Its value is 17.6357.

What about the “Raw data (SEAP)” value (BclXL-v1, A-1155463 10 nM) of the same molecule?
The value was 16.9788.

And the “Normalized data (SEAP)” value (BclXL-v1, A-1155463 31.6 nM)?
The value was 27.0618.

And the “Raw data (SEAP)” value (BclXL-v1, A-1155463 31.6 nM)?
Its value is 26.0537.

What about the “Normalized data (SEAP)” value (BclXL-v2, A-1155463 10 nM) of the same molecule?
The value was 37.2494.

What about the “Raw data (SEAP)” value (BclXL-v2, A-1155463 10 nM) of the same molecule?
The value was 114.053.

And the “Normalized data (SEAP)” value (BclXL-v2, A-1155463 31.6 nM)?
Its value is 81.2041.

And the “Raw data (SEAP)” value (BclXL-v2, A-1155463 31.6 nM)?
Its value is 248.637.

And the “Normalized data (SEAP)” value (BclXL-v3, A-1155463 10 nM)?
Its value is 48.7642.

And the “Raw data (SEAP)” value (BclXL-v3, A-1155463 10 nM)?
The value was 4.698.

What about the “Normalized data (SEAP)” value (BclXL-v3, A-1155463 31.6 nM) of the same molecule?
Its value is 43.9045.

And the “Raw data (SEAP)” value (BclXL-v3, A-1155463 31.6 nM)?
The value was 4.229.

And the “Normalized data (SEAP)” value (BclXL, A-1155463 10 nM)?
The value was 44.3287.

And the “Raw data (SEAP)” value (BclXL, A-1155463 10 nM)?
Its value is 190.609.

What about the “Normalized data (SEAP)” value (BclXL, A-1155463 31.6 nM) of the same molecule?
The value was 68.2169.

And the “Raw data (SEAP)” value (BclXL, A-1155463 31.6 nM)?
The value was 293.325.

What about the “SEAP, replicate values” (CBPA11-v3-BclXLv2, A-1155463 10000 nM) of the same molecule?
Its value is 80.3813 and 74.5359 and 94.7265.

And the “SEAP, replicate values” (CBPA11-v3, A-1155463 3180 nM)?
Its value is 250.833 and 293.834.

What about the “SEAP, replicate values” (CBPA11-v3, A-1155463 10000 nM) of the same molecule?
The value was 69.4522 and 75.5808 and 84.1281.

From PMC11062894, “Protein-based bandpass filters for controlling cellular signaling with chemical inputs” (Nature Chemical Biology, 2023)
